Measured values taken from patent US20160129070A1, “Glutathione Disulfide Compositions and Related Methods for the Treatment of Cancer” (South Dakota Board of Regents, priority 2014, published 2016).
At least one structure is not confirmed: it was looked up by name or label, or the drawing left a doubt.

Columns and labels:
B16-F10 melanoma tumors = test: Murine melanoma tumor growth model, subcutaneous B16-F10; type: in vivo, female C57BL/6 mice; conditions: 50 mg/kg, positive control
[1] = system: B16-F10 cells lung metastasis; test: Murine lung metastasis assay, B16-F10 cells injected through a tail vein; type: in vivo, mice
Text: Mice were housed four in a cage and received food and water ad libitum. All mice were used at approximately 7-10 weeks of age and given at least one week break after arrival. All experimental protocols were approved by the Institutional Animal Care and Use Committee. Procedures for murine lung metastasis assays reported previously were followed with minor modification [Bezault, J., Bhimani, R., Wiprovnick, J., and Furmanski, P. (1994) Cancer Res 54, 2310-2312; Kalland, T. (1986) Cancer Res 46, 3018-3022; Schultz, R. M., Silberman, S., Persky, B., Bajkowski, A. S., and Carmichael, D. F. (1988) Cancer Res 48, 5539-5545]. Mice were divided into 7 mice per group for treatment. B16-F10 cells were grown and maintained as monolayers in RPMI 1640 medium supplemented with 10% FBS and 1% penicillin/streptomycin in 5% CO2 at 37° C. The cells were then subjected to FBS starvation in RPMI 1640 medium without FBS for 24 h. Cells were harvested through trypsinization and adjusted to a density of […] with serum free medium. […] The weight of mice was recorded daily. […] Tumor nodules on lung surface were counted under a magnifier.
FIG. 5 presents the representative photographs of the lungs dissected from mice with different treatments. […] The effect was further confirmed by the metastatic tumors counted under a magnifier (Table 3). […]

## CN(C)/N=N/c1[nH]cnc1C(N)=O [Dacarbazine]
B16-F10 melanoma tumors
  effect on tumor growth: delayed tumor growth slightly
[1]; 50 mg/kg i.p., 7 mice per group
  mice in which metastatic tumors were spotted: one
[1]; no pretreatment of cells, 50 mg/kg i.p. daily for 5 days
  lung metastasis, visual observation: No lung metastasis was visually observed
